Test results from the supplement of paper PMC10849652.
The other results are listed elsewhere or left out.

Chains of the proteins cited; added tags and fusions are not shown. Lines headed by an entry give the natural chain unless they say otherwise; changes in a name come on top.
UniProt Q03252: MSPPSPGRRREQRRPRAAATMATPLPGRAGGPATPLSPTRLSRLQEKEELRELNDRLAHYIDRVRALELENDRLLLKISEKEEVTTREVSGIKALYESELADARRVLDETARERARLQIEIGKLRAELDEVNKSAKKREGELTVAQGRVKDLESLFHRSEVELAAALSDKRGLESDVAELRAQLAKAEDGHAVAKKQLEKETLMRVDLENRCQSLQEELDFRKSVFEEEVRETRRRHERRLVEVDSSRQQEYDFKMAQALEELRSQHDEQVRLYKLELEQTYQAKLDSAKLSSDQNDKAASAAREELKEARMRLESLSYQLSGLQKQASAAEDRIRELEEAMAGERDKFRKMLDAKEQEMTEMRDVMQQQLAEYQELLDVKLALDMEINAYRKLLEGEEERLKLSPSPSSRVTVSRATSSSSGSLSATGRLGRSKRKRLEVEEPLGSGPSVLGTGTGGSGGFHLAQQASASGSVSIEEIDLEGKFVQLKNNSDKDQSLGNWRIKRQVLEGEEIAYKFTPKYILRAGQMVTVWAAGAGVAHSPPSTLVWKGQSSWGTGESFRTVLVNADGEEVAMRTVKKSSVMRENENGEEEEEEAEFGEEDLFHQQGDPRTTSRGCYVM
UniProt Q6UWP7: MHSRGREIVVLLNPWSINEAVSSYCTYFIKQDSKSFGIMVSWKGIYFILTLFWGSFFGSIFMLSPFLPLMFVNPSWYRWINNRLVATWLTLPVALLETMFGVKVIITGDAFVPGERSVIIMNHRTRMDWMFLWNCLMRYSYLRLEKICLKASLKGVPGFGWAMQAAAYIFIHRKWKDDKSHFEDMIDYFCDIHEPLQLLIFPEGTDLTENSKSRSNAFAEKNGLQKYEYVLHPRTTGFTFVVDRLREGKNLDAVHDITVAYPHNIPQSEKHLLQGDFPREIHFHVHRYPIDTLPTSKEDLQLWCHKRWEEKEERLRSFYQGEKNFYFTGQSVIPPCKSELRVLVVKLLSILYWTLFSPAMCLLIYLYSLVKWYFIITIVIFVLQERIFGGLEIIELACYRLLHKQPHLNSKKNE
UniProt O60294: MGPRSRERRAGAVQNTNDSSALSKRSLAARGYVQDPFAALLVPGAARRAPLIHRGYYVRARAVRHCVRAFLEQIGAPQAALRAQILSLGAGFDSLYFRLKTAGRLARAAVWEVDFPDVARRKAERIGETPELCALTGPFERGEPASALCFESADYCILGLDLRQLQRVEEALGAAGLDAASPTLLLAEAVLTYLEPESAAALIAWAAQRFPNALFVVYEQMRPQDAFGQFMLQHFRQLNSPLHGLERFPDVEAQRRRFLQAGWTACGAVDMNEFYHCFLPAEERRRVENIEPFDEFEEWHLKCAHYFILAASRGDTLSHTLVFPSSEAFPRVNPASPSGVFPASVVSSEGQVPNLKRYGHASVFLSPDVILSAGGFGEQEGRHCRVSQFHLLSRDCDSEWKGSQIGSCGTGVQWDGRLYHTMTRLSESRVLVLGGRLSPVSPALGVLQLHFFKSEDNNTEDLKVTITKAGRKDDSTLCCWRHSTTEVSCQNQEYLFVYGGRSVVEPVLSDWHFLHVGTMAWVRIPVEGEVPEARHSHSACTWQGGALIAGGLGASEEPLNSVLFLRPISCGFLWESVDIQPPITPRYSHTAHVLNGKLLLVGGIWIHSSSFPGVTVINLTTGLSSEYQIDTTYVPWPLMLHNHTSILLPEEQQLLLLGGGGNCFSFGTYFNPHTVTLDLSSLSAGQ
UniProt Q6P9F7: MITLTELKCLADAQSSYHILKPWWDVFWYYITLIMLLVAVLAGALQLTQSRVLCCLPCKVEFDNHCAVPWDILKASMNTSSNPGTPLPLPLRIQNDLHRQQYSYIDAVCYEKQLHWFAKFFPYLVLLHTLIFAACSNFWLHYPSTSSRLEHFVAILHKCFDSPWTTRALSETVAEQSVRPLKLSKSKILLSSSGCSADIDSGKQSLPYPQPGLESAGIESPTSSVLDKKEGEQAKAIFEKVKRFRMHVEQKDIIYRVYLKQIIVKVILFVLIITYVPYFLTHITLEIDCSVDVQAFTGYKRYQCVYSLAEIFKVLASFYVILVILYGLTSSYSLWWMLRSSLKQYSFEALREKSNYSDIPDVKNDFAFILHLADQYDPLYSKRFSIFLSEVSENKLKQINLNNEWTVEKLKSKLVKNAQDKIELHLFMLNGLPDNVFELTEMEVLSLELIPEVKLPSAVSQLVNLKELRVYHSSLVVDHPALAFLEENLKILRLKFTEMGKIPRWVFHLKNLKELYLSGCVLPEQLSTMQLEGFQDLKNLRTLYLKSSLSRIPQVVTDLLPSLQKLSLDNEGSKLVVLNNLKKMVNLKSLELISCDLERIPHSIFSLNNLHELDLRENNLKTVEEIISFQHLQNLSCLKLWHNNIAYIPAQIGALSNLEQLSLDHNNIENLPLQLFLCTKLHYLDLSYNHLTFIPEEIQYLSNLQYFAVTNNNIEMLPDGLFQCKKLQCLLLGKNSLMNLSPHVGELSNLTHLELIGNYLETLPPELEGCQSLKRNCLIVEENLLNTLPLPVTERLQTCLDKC
UniProt Q9UIC8: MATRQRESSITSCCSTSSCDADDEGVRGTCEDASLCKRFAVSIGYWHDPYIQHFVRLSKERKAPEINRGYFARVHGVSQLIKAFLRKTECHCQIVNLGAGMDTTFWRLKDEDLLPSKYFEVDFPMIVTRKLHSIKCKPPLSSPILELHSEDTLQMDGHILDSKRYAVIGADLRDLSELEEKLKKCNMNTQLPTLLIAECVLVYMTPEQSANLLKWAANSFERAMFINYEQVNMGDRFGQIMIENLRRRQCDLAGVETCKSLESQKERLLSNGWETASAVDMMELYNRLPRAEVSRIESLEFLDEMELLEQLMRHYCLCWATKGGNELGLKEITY
UniProt P25791: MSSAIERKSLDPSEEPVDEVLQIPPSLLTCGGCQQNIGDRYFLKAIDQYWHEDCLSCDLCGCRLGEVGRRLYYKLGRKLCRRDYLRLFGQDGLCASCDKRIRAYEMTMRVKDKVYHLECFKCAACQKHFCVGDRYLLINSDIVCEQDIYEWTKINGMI
UniProt Q8TDW0: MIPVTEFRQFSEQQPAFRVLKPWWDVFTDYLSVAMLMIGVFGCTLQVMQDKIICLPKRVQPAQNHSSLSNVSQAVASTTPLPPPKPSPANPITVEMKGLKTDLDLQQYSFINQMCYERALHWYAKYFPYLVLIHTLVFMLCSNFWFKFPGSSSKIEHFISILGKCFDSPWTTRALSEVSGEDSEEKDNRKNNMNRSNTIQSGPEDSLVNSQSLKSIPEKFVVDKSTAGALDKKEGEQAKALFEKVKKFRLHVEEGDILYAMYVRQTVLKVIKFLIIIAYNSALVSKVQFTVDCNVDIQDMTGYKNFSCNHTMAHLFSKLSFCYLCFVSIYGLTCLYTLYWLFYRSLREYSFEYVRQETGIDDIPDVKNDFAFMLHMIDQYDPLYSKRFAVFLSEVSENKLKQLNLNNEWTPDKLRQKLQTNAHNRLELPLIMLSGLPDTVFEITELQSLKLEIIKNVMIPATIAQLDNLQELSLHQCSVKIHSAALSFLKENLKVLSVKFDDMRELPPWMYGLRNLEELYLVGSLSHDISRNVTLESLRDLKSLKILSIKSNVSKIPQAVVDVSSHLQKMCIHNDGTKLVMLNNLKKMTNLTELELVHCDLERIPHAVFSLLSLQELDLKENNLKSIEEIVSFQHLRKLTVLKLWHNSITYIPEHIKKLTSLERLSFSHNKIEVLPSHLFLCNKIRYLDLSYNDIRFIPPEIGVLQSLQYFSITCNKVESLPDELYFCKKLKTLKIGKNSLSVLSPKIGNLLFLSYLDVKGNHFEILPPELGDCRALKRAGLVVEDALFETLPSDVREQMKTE
UniProt Q9H6V9: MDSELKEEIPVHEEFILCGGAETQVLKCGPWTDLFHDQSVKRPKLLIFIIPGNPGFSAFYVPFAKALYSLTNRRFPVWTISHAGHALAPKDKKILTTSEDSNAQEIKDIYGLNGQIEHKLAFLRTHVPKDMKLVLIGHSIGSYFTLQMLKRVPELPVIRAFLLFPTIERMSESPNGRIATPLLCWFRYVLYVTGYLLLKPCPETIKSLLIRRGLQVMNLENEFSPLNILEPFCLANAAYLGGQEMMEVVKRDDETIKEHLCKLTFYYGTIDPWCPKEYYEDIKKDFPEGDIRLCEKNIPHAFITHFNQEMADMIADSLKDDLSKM
UniProt Q9H0V9: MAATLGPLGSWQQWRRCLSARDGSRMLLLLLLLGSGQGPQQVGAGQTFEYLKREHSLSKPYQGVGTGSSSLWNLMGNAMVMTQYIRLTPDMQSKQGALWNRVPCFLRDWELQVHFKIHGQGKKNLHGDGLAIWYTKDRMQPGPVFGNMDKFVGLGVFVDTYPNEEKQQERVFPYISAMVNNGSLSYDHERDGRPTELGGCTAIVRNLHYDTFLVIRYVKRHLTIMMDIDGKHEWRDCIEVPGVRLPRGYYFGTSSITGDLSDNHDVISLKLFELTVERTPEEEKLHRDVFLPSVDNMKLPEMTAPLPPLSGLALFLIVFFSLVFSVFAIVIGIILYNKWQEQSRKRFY
UniProt O75427: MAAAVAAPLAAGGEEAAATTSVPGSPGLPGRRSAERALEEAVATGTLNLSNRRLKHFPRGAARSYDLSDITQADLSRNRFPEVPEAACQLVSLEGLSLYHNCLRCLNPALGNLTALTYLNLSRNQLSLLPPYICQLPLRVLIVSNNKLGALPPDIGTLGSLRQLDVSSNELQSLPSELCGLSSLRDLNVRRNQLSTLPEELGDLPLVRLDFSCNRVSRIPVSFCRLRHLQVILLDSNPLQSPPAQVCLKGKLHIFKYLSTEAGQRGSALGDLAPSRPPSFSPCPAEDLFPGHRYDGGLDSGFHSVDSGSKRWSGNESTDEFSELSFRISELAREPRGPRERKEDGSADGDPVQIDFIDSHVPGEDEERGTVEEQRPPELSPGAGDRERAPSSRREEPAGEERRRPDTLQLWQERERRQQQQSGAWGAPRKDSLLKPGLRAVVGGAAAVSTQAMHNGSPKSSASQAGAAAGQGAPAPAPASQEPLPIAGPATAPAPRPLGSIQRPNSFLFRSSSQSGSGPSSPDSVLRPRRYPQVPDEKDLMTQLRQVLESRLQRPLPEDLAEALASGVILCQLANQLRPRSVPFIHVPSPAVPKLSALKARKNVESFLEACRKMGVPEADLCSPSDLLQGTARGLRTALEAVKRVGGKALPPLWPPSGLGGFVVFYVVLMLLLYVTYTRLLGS
UniProt Q9Y4W2: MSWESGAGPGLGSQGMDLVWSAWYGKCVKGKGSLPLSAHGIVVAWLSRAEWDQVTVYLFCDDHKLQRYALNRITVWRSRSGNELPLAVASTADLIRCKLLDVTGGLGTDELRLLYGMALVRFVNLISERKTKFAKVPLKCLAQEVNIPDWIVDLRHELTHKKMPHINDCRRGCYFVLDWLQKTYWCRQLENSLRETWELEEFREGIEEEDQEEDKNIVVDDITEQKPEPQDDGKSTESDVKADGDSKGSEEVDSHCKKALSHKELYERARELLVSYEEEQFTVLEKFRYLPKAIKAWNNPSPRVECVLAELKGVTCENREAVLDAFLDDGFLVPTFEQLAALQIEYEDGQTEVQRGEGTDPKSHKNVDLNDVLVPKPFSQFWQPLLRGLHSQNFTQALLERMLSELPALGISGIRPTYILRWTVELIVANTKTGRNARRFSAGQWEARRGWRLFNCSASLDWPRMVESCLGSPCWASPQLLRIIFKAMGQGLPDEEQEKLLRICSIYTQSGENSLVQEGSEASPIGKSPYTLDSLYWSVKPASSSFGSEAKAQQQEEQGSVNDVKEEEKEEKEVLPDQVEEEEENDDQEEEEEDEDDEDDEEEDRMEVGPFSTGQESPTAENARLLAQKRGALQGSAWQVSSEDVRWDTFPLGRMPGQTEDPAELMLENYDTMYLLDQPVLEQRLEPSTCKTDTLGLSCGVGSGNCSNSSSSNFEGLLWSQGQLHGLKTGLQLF
UniProt Q9UFC0: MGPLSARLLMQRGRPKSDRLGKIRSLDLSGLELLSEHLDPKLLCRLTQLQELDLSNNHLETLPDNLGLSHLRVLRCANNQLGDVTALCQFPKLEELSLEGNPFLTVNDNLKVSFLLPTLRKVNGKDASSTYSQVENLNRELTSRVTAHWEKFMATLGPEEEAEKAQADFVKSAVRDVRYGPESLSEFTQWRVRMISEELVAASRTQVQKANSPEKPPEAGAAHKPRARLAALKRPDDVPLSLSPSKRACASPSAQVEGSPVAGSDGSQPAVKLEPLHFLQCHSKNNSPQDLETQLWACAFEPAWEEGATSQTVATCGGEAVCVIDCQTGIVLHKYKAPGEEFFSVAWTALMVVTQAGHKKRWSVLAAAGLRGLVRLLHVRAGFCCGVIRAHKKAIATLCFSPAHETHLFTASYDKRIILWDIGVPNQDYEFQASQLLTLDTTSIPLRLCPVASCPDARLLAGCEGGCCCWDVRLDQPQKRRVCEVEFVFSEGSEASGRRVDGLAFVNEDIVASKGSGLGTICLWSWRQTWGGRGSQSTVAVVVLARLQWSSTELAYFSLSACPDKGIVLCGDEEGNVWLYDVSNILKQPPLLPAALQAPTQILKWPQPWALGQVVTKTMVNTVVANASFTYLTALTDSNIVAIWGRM

Compound: Cn1cc(CNCC2CCN(c3ncc(C(=O)NO)cn3)CC2)c2ccccc21 [quisinostat]
Experiment: log2 fold change, soluble protein after heating vs DMSO (PISA); higher = thermal stabilisation; K562 lysate, 10 uM; active = over 0.2 and 3.5 SD of the protein, either way, in both replicates (recomputed)
Summary of the method: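 Log-two fold change in thermal stability relative to solvent controls is reported from duplicates. For each sample, crude K562 extract from dounce-homogenised pellets in PBS pH 7.4 with 1 mM MgCl2, at 1 mg/mL protein, was treated with 10 μM compound for 30 min. Aliquots heated for 3 min across 48°C-58°C were pooled, brought to 0.5% NP-40 at 4°C and cleared at 21,000xg for 90 min. The supernatant was quantified by TMTpro 16plex LC-MS/MS with channel sums equalised.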

log2 fold change, inactive:
LRPPRC (UniProt P42704) -0.003
LETMD1 isoform 7 (UniProt Q6P1Q0) 0.007
LARS2 (UniProt Q15031) 0.028
LMNB2 (UniProt Q03252) -0.001
LCLAT1 (UniProt Q6UWP7) -0.159
LEO1 (UniProt Q8WVC0) 0.07
LCMT2 (UniProt O60294) -0.009
LRRC8B (UniProt Q6P9F7) 0.082
LCMT1 (UniProt Q9UIC8) 0.037
LRBA, A0A494BZW2 -0.87
LMO2 isoform 3 (UniProt P25791) -0.024
LRRC8C (UniProt Q8TDW0) -0.058
LDAH isoform 2 (UniProt Q9H6V9) -0.022
LMAN2L isoform 2 (UniProt Q9H0V9) -0.027
LRCH4 (UniProt O75427) -0.041
LCP2 (UniProt Q13094) 0.017
LAS1L (UniProt Q9Y4W2) -0.083
LRWD1 (UniProt Q9UFC0) -0.132
LSM14B isoform 2 (UniProt Q9BX40) -0.012
LGALS8 isoform 2 (UniProt O00214) -0.069
LIMD1 (UniProt Q9UGP4) -0.033
LDHA isoform 3 (UniProt P00338) -0.015

A portion from further up, as a working copy:
log2 fold change, inactive:
LRRC8C (UniProt Q8TDW0) -0.058
LDAH isoform 2 (UniProt Q9H6V9) -0.022
